From PMC6167787
These are yes or no findings as the source states them, for the method shown. In cells and extracts the contact can be indirect. Some binding calls cover weakened binding; strength is not graded here.

Protein sequences, listed by entry. Tags and fused reporters are not part of them.
UniProt O14503: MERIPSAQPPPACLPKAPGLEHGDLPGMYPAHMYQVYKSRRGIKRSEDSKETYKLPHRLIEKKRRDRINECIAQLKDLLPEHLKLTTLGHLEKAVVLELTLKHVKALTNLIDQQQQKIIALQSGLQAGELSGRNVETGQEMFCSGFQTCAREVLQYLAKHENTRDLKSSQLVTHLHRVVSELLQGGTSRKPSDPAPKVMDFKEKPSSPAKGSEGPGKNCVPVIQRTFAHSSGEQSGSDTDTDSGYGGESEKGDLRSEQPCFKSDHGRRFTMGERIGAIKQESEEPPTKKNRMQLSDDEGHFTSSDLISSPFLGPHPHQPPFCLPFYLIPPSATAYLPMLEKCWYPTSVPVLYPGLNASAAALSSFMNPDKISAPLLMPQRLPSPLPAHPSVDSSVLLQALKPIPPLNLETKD
UniProt Q92769: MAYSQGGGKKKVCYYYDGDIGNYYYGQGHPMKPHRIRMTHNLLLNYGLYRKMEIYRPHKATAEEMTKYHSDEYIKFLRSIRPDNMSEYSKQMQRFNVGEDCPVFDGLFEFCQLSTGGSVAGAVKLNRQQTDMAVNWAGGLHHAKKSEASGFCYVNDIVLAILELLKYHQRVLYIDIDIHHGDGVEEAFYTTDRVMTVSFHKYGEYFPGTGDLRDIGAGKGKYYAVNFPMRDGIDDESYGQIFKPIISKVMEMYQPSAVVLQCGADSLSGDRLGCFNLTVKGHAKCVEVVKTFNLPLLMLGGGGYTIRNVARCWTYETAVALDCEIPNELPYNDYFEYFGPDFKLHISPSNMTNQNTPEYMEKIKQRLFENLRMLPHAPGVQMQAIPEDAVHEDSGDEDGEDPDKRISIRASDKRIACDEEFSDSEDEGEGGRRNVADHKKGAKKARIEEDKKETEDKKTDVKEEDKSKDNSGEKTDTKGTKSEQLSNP
UniProt Q13547: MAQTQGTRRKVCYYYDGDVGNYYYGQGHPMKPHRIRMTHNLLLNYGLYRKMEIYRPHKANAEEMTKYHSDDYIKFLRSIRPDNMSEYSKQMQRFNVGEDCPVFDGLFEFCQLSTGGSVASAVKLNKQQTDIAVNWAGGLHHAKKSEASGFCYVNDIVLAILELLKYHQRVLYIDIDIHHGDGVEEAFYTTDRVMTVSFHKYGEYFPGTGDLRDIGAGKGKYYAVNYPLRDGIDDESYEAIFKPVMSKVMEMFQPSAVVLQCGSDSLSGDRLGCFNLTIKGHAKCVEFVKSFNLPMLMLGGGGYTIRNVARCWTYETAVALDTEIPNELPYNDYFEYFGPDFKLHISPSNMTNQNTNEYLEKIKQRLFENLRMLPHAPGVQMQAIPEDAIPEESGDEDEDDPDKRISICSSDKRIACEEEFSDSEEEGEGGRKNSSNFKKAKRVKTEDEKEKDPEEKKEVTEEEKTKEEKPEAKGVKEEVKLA

Target: Basic helix-loop-helix family member E40 (BHLHE40) (human (endogenous in MDA-MB-231)) (UniProt O14503)
Assay: co-IP; reciprocal co-immunoprecipitation/immunoblotting of endogenous proteins in the soluble cellular fraction (Pierce IP Lysis Buffer with protease inhibitors, TrueBlot kit) of MDA-MB-231 EV cells, control or exposed to 1%O2/LG for 4 h

| binding | Substance |
| --- | --- |
| binds | histone deacetylase 2 (HDAC2) (from UniProt Q92769 1-488) |
| binds | histone deacetylase 1 (HDAC1) (from UniProt Q13547 1-482) |
